According to the supplement of paper PMC3334620:
The full ranking holds about 33,000 sequences; the median of “E-score (-0.5 to 0.5)” is about -0.0014, and the highest 2% start at about 0.25. This is one part of the list.

molecular target: T1, Cad1 (UniProt P24813); test: PBM E-score (8-mer binding enrichment) (E-score (-0.5 to 0.5)); higher = stronger / more preferred TF binding; details: protein concentration: 100 nM; construct: GST-full length
T1 sequence: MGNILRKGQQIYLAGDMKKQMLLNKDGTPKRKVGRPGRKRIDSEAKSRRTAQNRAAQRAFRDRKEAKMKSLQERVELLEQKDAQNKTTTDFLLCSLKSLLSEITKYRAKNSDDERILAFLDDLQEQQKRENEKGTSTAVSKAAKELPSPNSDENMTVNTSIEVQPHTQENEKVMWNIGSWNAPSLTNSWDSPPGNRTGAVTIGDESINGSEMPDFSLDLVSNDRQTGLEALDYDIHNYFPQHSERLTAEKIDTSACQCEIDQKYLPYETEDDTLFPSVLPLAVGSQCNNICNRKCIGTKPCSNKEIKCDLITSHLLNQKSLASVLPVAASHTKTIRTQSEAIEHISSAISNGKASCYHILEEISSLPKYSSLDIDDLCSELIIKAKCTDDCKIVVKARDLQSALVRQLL
Summary of the method: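 Each ungapped eight-base word and its reverse complement, pooled, received an E-score from the Universal PBM Analysis Suite. Underlying scans, normalised with masliner, recorded fluorescent anti-GST bound to GST-tagged yeast transcription factors. These were applied at about 100-200 nM to universal all-10-mer Agilent arrays double-stranded by primer extension.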

Sequence | PBM E-score
ATTCCCAC | 0.00183
AATGAGGC | -0.111
GCAATCAC | -0.0724
CCACAGAC | 0.0148
GGACTCAC | -0.0924
ACCGGTGG | -0.361
CGACCCCC | -0.458
GAGGTCAC | -0.0696
CCCCGAAA | -0.0484
ACCTTAAG | -0.104
AATCGTCG | 0.0858
ACGAAAGC | 0.00748
ATGAACCG | -0.113
TAATCACA | 0.121
AATGCGCG | 0.305
GTGGTAGA | -0.132
CTCGCGCA | 0.113
ACACGCCT | -0.0213
ATCTGCTA | 0.112
ATACCCAA | 0.125
AATGGCAC | -0.0846
GTCCCCAA | -0.122
GCAGGTAA | 0.0008
ACGTTGAC | 0.0708
CAAGGCGG | -0.169

Sequence | PBM E-score
AGAAGCTA | -0.198
GCTGATAC | -0.0983
CCCCAGGA | -0.344
CCGTCGAC | -0.0671
AATGACCG | -0.111
GCGTAGAA | 0.0302
CACGACCC | 0.0135
CGTCTATA | -0.102
ACAGTAGT | 0.0284
AACCTAGT | -0.18
ATTTTTAC | 0.0299
ACTGTGTG | -0.08
ATGTTGTA | 0.11
AGCTGCTG | -0.00461
CTTTCCCC | 0.00042
ACTGAAAC | 0.177
ACACAAAA | 0.0974
CCGTCAGA | -0.347
CCGCCGGC | 0.128
AGTCTGAT | -0.0546
CGAGGACA | 0.0161
GAGACACC | -0.136
GCCGATGA | 0.0997
GGCTTCAC | -0.141
ATGCCCAA | -0.109

Sequence | PBM E-score
ACGCGATC | 0.0805
CATATAGA | 0.0853
ATCTGGTG | 0.0268
CTTCTCGA | 0.0254
CTAAACGA | -0.0962
AACGCCGG | -0.0998
GGAAAGGA | -0.162
AAGTGTGT | -0.0303
GACCTAAC | 0.181
ATACCGAC | -0.186
CCAACTGG | 0.025
ATTAACTA | -0.00319
ACTCGTAC | -0.152
GGCTAACA | 0.0256
GCTGAGTA | 0.17
ATATACCA | -0.00731
ATTAATGG | 0.239
GGATCATA | -0.175
TAGGTGGA | -0.0227
CCATATAG | -1e-05
CGACCAAA | 0.199
CGTATGGA | -0.0745
AACTAGTT | 0.201
GTTCTCCA | 0.00521
AAATATAC | -0.0915

Sequence | PBM E-score
AGTGGCTG | -0.156
AGGCCTGA | 0.106
CACACTTA | 0.0458
GCAACGTA | 0.0255
GAGGAGTA | -0.168
AGCACTAT | -0.0481
ATCGAATG | 0.02
CTATGTAA | 0.0659
CGATCCAA | -0.0601
AATAACGC | -0.0922
ACAACATC | 0.0648
TATATTGA | 0.146
ATCCGATC | 0.16
GCTTATCA | 0.0614
CTAAAAGA | -0.0602
CCTAAGTA | -0.0327
AACGGCCT | 0.0329
CCGGTGTA | -0.0814
AGTTAGAA | 0.00448
AGTCTATC | -0.059
CCCTTAAG | -0.0886
GGTGAACC | -0.0269
CTCGTGGC | -0.138
CCCCGATA | -0.115
ACTGCACG | -0.039

Sequence | PBM E-score
CGCTCGTC | -0.0724
CGCTCCAA | 0.0125
ACGTTTCC | -0.0254
CGTCCGCA | -0.0396
GATGATTA | 0.126
TCGAGGAA | -0.132
CCCCGAGA | -0.138
GCCTACAA | 0.00887
AACACTTG | -0.0256
GTTCTAAA | -0.0174
CGGAGTTA | 0.0713
AGAGAGGG | -0.23
CATGCAGC | 0.0258
GGAGTGCC | -0.0729
AGAAGCTC | -0.0135
CATAAGAG | 0.184
AACGGTGG | -0.179
ACCGGGCA | -0.197
ATGCCTCG | 0.034
AAAGCTGC | 0.0487
ATCTTCCC | -0.129
CCAAGATC | 0.0415
GTCAATCA | -0.138
AAATGTCT | 0.0517
AATGAGCC | -0.164

Sequence | PBM E-score
GCCCGACA | 0.0828
ACGATGAC | 0.0549
CGCGTCCG | 0.0408
AACCGATG | -0.108
GGGATAAC | -0.0389
AATAGGCT | -0.0189
AAGACCCG | -0.103
CAAATGCC | -0.0328
CCGAGCGA | 0.139
CCTGTTGC | -0.00892
GTCGGCAA | -0.0595
GGGTCTCA | -0.204
CAGCGCCC | -0.15
CTAATTGC | 0.113
CGATTTGA | 0.1
GACCCCGA | -0.0428
GGGTGGAC | -0.0138
AGCTGCAA | -0.0573
ACCGACTA | -0.195
GGGCCTCA | -0.0631
GGAGCTTA | -0.171
ACTTTATC | 0.0979
GAACTCCC | -0.0748
GGGCTAGA | -0.00541
AATGCTAT | 0.156

Sequence | PBM E-score
AAACCGTC | 0.0249
TACTTCGA | 0.112
ACGTAAAC | -0.148
TCGAAAAA | 0.16
AGGCATGA | -0.191
ACTCCTCC | -0.204
TCTCCTAA | -0.0727
AAGCCTCA | -0.227
GGTTCCAA | 0.0424
ACAACTAG | -0.208
AACAGCGC | 0.0746
AGGTCGAT | 0.0315
GGCTTCCC | -0.0469
GATACGAC | -0.0168
ATCCGCCA | 0.0883
GATATCGA | 0.116
GAACCAAC | 0.125
ACTCTTAG | -0.0625
GATCTCCA | 0.0144
AAGAATCT | -0.159
GACACCCA | -0.0438
GGGCCAGA | -0.22
